The source of these data is PubChem BioAssay AID1347423 (Functional Genomics Laboratory (NCATS/FGL), 2020).

The campaign covered roughly 52,000 sequences. About 210 (0.4%) were called active.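 The calls were made as follows: active = gene whose silencing raises cell survival under the drug, median off-target-corrected z-score across its silencing RNAs 2 or more; inactive = the rest.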 Some of the results follow.

The nature of this test: Resistance to Poly (ADP-Ribose) Polymerase inhibitor: Gene Identification via Genome-wide siRNA Screen. The following applies: mouse BRCA2 R2336H ES cells, olaparib, CellTiter-Glo viability; stronger effect = higher value. In a few lines:
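Genome-wide siRNA screen (3 siRNAs/gene, 20 nM) in mouse ES cells carrying hypomorphic BRCA2 R2336H; olaparib 500 nM added 48 h post-transfection, CellTiter-Glo viability 72 h later. Normalized to plate-median negative control; MAD z-scores, gene median, seed-adjusted.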
(In general: In ATP-based viability assays light output follows the ATP content of the culture.)
For the sequence GGGAGCAACAAUGUAAACATT against Pex13, the z-score is inactive: -0.0363.

GCUGUUAGCCUAGUUUGUUTT against Gm1568: the z-score is inactive: 0.253.

As to GGUAAUGUCCUUAUCAUCUTT against Olfr211, the z-score is inactive: -0.139.

GGUACACAUGACAUUCAUGTT against Gcdh: the z-score is inactive: 0.613.

In the case of GCUCGUUCGCCUAGAAUUGTT against Mycbp, the z-score was inactive: 1.07.

Take GGGUUUUUGGGAGAGCCAATT against Tbxas1: the z-score is inactive: -2.95.

With GGACAAGUUAGAGGAAUUUTT against Phf13, the z-score is inactive: -0.905.

Take GCUUUGUUGCGUCAACAAATT against Sdccag8: the z-score was inactive: 1.03.

As to GGUUACGAAUUACCUAGACTT against Plat, the z-score is inactive: -0.275.

For GGAGAUUGAUUUCAAUGCCTT against Olfr665, the z-score was inactive: -0.0692.

As for “CCUCCUCUCCUAAAUGCCUTT against 1700034O15Rik”, the z-score is inactive: 0.0352.

Take GGACCUCACAAGUGUUUAUTT against Pola1: the z-score is inactive: -0.152.

Consider GCCUUAGGUUCGGAUGACCTT against Rorb, for which the z-score is inactive: 1.14.

GGUGAUUUGUAAGACAGCUTT against Dpyd: the z-score is inactive: 1.32.

On to GCGGUAACAUCACCAAAAUTT against Gltp, for which the z-score was inactive: -0.645.

Regarding CCGUGGUCUACUCCAUCAUTT against Slc6a19, the z-score is inactive: -1.72.

With GCGAAAGAUGGAAGACGACTT against Gtf3c1, the z-score was inactive: -1.88.

As for GGAAAGUUAAUGCACAUUUTT against Hmg20a, the z-score is inactive: -1.08.

Turning to CCAGUUCCGGUCAGAUUAUTT against Gnal, the z-score is inactive: -1.1.

As for GGUUUCGUACCAUGAAACATT against Epim, the z-score is inactive: -0.711.

In the case of GCAAAGGUUCUAGUUGAUATT against Cct2, the z-score was inactive: -2.51.

With CGGCACCAGUGUUCUAUUGTT against Ddi2, the z-score is inactive: -0.359.

Take GCUCAACGCAUUUUUCCAUTT against Neurod2: the z-score is inactive: 1.21.

On to CGUAGAGCUCAGAGAAUUCTT against D11Lgp2e, for which the z-score is inactive: 1.63.

For GGAUUCUUUCCCUUUGUGCTT against BC038613, the z-score is inactive: 0.459.

For the sequence GGACUGGAAGAAUUUUUUGTT against Mrpl47, the z-score was inactive: 1.99.

Take GCUCAUGUAUGUGAAUUUGTT against Ptx3: the z-score was inactive: 0.366.

For GGUGACUCUGAUUCUCAUATT against Slc22a13, the z-score was inactive: 0.608.

In the case of GGCUUAGAAUCAGACUUGUTT against Tor3a, the z-score is inactive: 1.33.

Take GGCUAUCAGUUUCAAUGAGTT against Olfr663: the z-score is inactive: 0.0513.

Regarding GGUGAGGUAGGUUACUCAGTT against Reps1, the z-score was inactive: -2.75.

In the case of GGCCUACGACAAAUCCAAATT against Csrp2, the z-score is inactive: 2.51.

As for “GGCAGCUGUUCAUCAUUACTT against 1110001K21Rik”, the z-score is inactive: 0.522.

With GGAACGGCUGAUCACUCUGTT against Otop1, the z-score was inactive: 0.783.

For the sequence “GGCCUACUACAUUUUGUCATT against 2700050L05Rik”, the z-score is inactive: 0.924.

Consider GGUAACACAGAAGAAAUCUTT against Hig1, for which the z-score is inactive: 2.62.

With CCUAAAGACGUGCAAUAUGTT against Zfp287, the z-score was inactive: 1.53.

On to GGAAUGUUACCCUUCAACUTT against Slc25a13, for which the z-score is inactive: 0.238.

Regarding “GCAGAUUGAUUAUACGGUATT against 2310036D22Rik”, the z-score was inactive: -1.65.

For “GCGAGCAUGAAGUUAGUAATT against C230029F24Rik”, the z-score was inactive: -0.429.

For the sequence CCUGUGAAAGAUGCUUAUATT against Capn7, the z-score was inactive: 2.01.

In the case of GGCACGAUACUUAUUUGAATT against Nudt13, the z-score was inactive: -0.941.

For the sequence GCUAUUGACCAGGUUAUAATT against Pdhb, the z-score is inactive: 0.381.

As to CCAGAUGGUCUAUAUCGUATT against Plscr4, the z-score is inactive: 0.973.

As for GCCUCCAUAAUUGUCAAUATT against Rbks, the z-score is inactive: -0.061.

For GGCUUUGGAUGUUUUUGUATT against Fgf10, the z-score is inactive: -0.728.

For GGGAGUCCGUUCAAACUCGTT against Pttg1, the z-score is inactive: 1.28.

On to GGUGGAAGUUUUCAGUGGCTT against Axud1, for which the z-score was inactive: 1.03.

With GGAGUGUGCGGAACAUUCUTT against Slc17a5, the z-score is inactive: 2.13.

GGCCAUUUCCAUCAGAGGATT against Vav2: the z-score was inactive: -0.871.

GGACUGUUGCAUGACUCUCTT against Evc: the z-score is inactive: 0.352.

On to “GGAAGUGCUACUUUCUGGGTT against 2810417M05Rik”, for which the z-score is inactive: 1.37.

As for GGUUCAUAAUGCCUUCAAGTT against Olfr1449, the z-score is inactive: 0.869.

Turning to CCUACUCUCUAGAAAAGGATT against Olfr1006, the z-score is inactive: -0.881.

On to GGAGUUGUUCAGGUCCCGATT against Crlf1, for which the z-score was inactive: -0.815.

As to GGCGUGCUUUCUACCAAGGTT against Slco1a5, the z-score was inactive: -0.85.

Take “GGUCCCUAGAAAUUCGGGATT against 3632410F03Rik”: the z-score is inactive: 0.382.

As for GGUCUUACCUUUUGAAAAATT against Mtbp, the z-score is inactive: -1.46.

For the sequence GCUUUGACCUCGAAAAUGGTT against Pde4c, the z-score was inactive: 0.254.

On to CCAGAGUCGCUACAAAAUUTT against V1rd21, for which the z-score is inactive: -0.451.

Regarding GGUGUUUGCUAAGGUGCUCTT against Ampd3, the z-score was inactive: 1.27.

In the case of CCACCUAUUACAUGAUCUUTT against Rnf32, the z-score was inactive: -0.321.

Turning to “GCACAAGAUUGACAAGAGCTT against 5430437P03Rik”, the z-score is inactive: -0.323.

As for “GGUGCCUCUUAAAUAAAAATT against A630008I04”, the z-score is inactive: -1.3.

For the sequence CCCUGAUACUCAAUGAAGATT against BC049762, the z-score is inactive: -0.199.

Take CCACAUCUAAAGUUCAAGATT against Map3k7ip2: the z-score is inactive: -1.5.

Turning to GGGAGAGAGUUGGCUCUGATT against Prg3, the z-score is inactive: 0.0449.
